Experimental data from the supplement of paper PMC10727501.
The list shows a part of the results. Repeats in this data set agree poorly, so a single value says little.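 Free-swimming zebrafish larvae were scored for O-bend response probability to dark flashes (naive: first five; training: remaining flashes of four 60-flash blocks; test: later 60-flash block) and for turning toward alternating leftward/rightward LED motion (OMR). Six treated larvae were compared with sixty 0.1% DMSO controls; |SSMD|≥2 defined a hit.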

Assays:
Conditions in all cases: 10 µM; pre-incubation: 30-90 min
[1] = test system: Danio rerio larvae (5 dpf, TLF); experiment: OMR-Perf (SSMD vs DMSO vehicle); higher = higher than vehicle (e.g. higher dark-flash O-bend response probability, or better optomotor performance)
[2] = test system: Danio rerio larvae (5 dpf, TLF); experiment: Prob-Test (SSMD vs DMSO vehicle); higher = higher than vehicle (e.g. higher dark-flash O-bend response probability, or better optomotor performance)
[3] = test system: Danio rerio larvae (5 dpf, TLF); experiment: Prob-Naive (SSMD vs DMSO vehicle); higher = higher than vehicle (e.g. higher dark-flash O-bend response probability, or better optomotor performance)
[4] = test system: Danio rerio larvae (5 dpf, TLF); experiment: Prob-Train (SSMD vs DMSO vehicle); higher = higher than vehicle (e.g. higher dark-flash O-bend response probability, or better optomotor performance)

Compound | OMR-Perf [1] | Prob-Test [2] | Prob-Naive [3] | Prob-Train [4]
CC(=O)O[C@@]1(C(C)=O)CC[C@H]2[C@@H]3C=C(C)C4=CC(=O)CC[C@]4(C)[C@@H]3CC[C@@]21C [Megestrol Acetate] | -0.292 | -0.429 | 0.149 | -0.529
CCCS(=O)(=O)Nc1ccc(F)c(C(=O)c2c[nH]c3ncc(-c4ccc(Cl)cc4)cc23)c1F [Vemurafenib (PLX4032, RG7204)] | 0.312 | -0.289 | -0.0595 | -0.326
CNC(=O)Nc1ccc(-c2nc(N3CC4CCC(C3)O4)c3cnn(C4CCC5(CC4)OCCO5)c3n2)cc1 | -0.277 | 0.392 | -0.397 | 0.162
Nc1ccc(C(=O)[O-])c(O)c1.[Na+] [Sodium 4-Aminosalicylate] | -0.291 | -0.218 | 0 | -0.335
C=C1CC[C@H](O)C/C1=C\C=C1/CCC[C@@]2(C)[C@H]1CC[C@H]2[C@H](C)CCCC(C)C [Vitamin D3] | 0.671 | -0.527 | 0.00662 | -0.165
CCC1=C(C)CN(C(=O)NCCc2ccc(S(=O)(=O)NC(=O)N[C@H]3CC[C@H](C)CC3)cc2)C1=O [Glimepiride] | -0.413 | 0.406 | -0.117 | -0.201
CC(C)N(CCCNC(=O)Nc1ccc(C(C)(C)C)cc1)C[C@H]1O[C@@H](n2ccc3c(N)ncnc32)[C@H](O)[C@@H]1O | -0.0426 | 0.168 | 0.245 | 0.373
CO/N=C(\C(=O)N[C@H]1C(=O)N2C(C(=O)OCOC(=O)C(C)(C)C)=C(/C=C\c3scnc3C)CS[C@H]12)c1csc(N)n1 [Cefditoren Pivoxil] | 0.0459 | -0.00123 | 0.26 | 0.687
Cc1ccc(Nc2nccc(N(C)c3ccc4c(C)n(C)nc4c3)n2)cc1S(N)(=O)=O.Cl | 0.81 | -0.0165 | -0.288 | -0.532
COc1ccc2c(c1OC)C(=O)O[C@H]2[C@H]1c2c(cc3c(c2OC)OCO3)CCN1C.Cl [Noscapine HCl] | 0.334 | 0.566 | 0.457 | 0.0945
CN1CCN(C2=Nc3ccccc3Oc3ccc(Cl)cc32)CC1.O=C(O)CCC(=O)O [Loxapine Succinate] | -0.688 | 0.414 | -0.105 | -0.935
Nc1nc2[nH]nnc2c(=O)[nH]1 [Azaguanine-8] | -0.124 | -0.108 | -0.328 | -0.269
COc1cc2nc(N(C)CCCNC(=O)C3CCCO3)nc(N)c2cc1OC.Cl (stereo unspecified) [Alfuzosin HCl] | -0.136 | -0.00289 | 0.463 | 0.256
Cl.N=C(N)NC(=O)c1nc(Cl)c(N)nc1N.O.O [Amiloride hydrochloride dihydrate] | -0.476 | 0.0723 | -0.409 | 0.225
O=C(C1CCCCC1)N1CC(=O)N2CCc3ccccc3C2C1 (stereo unspecified) [Praziquantel] | -0.214 | 0.0356 | 0.292 | 0.154
Nc1ccc(C(=O)NCC(=O)[O-])cc1.[Na+] [Sodium 4-aminohippurate Hydrate] | -0.0912 | 0.127 | 0.134 | 0.218
Cc1cc(C)nc(NS(=O)(=O)c2ccc(N)cc2)n1 [Sulfamethazine] | -0.48 | 0.109 | 0 | 0.946
CS(=O)(=O)c1ccc([C@@H](O)[C@@H](CO)NC(=O)C(Cl)Cl)cc1 [Thiamphenicol] | -0.308 | -0.216 | 0 | -0.198
Cc1ncc([N+](=O)[O-])n1CCO [Metronidazole] | -0.495 | -0.618 | 0.402 | -0.615
CC(C)OC(=O)C(C)(C)Oc1ccc(C(=O)c2ccc(Cl)cc2)cc1 [Fenofibrate] | -0.563 | -0.874 | -2.99 | -2.54
O=C1NC(=O)C(c2ccccc2[N+](=O)[O-])=C1Nc1ccc(O)c(Cl)c1 | 0.121 | -0.155 | -0.13 | 0.22
CO/N=C(/C(=O)N[C@H]1C(=O)N2C(C(=O)O)=C(Cn3ccc(=N)n3CCO)CS[C@H]12)c1csc(N)n1.O=S(=O)(O)O [Cefoselis Sulfate] | 0.96 | 0.185 | 0.0774 | 0.214
CN(C)CCN(Cc1ccccc1)c1ccccn1.Cl [Tripelennamine HCl] | 0.297 | 0.162 | 0.389 | 0.0986
CCNC(=O)CCC/C=C\C[C@@H]1[C@@H](/C=C/C(O)CCc2ccccc2)[C@H](O)C[C@@H]1O (stereo partly specified) [Bimatoprost] | -0.376 | -0.0812 | 0.471 | -0.452
CC(C)(F)C[C@H](N[C@@H](c1ccc(-c2ccc(S(C)(=O)=O)cc2)cc1)C(F)(F)F)C(=O)NC1(C#N)CC1 [Odanacatib (MK-0822)] | 0.0965 | 0.251 | 0.449 | 0.605

Part of the list above, as tab-separated lines:
Compound	OMR-Perf [1]	Prob-Test [2]	Prob-Naive [3]	Prob-Train [4]
CC(C)N(CCCNC(=O)Nc1ccc(C(C)(C)C)cc1)C[C@H]1O[C@@H](n2ccc3c(N)ncnc32)[C@H](O)[C@@H]1O	-0.0426	0.168	0.245	0.373
CO/N=C(\C(=O)N[C@H]1C(=O)N2C(C(=O)OCOC(=O)C(C)(C)C)=C(/C=C\c3scnc3C)CS[C@H]12)c1csc(N)n1 [Cefditoren Pivoxil]	0.0459	-0.00123	0.26	0.687
Cc1ccc(Nc2nccc(N(C)c3ccc4c(C)n(C)nc4c3)n2)cc1S(N)(=O)=O.Cl	0.81	-0.0165	-0.288	-0.532
COc1ccc2c(c1OC)C(=O)O[C@H]2[C@H]1c2c(cc3c(c2OC)OCO3)CCN1C.Cl [Noscapine HCl]	0.334	0.566	0.457	0.0945

Next part

Compound | OMR-Perf [1] | Prob-Test [2] | Prob-Naive [3] | Prob-Train [4]
CCC(C)(C)c1ccc(CC(C)CN2C[C@@H](C)O[C@@H](C)C2)cc1.Cl (stereo partly specified) [Amorolfine HCl] | -1.3 | -1.46 | -0.84 | -2.42
C#Cc1cccc(Nc2ncnc3cc(OC)c(OCCCCCCC(=O)NO)cc23)c1 | -0.116 | -0.175 | -0.262 | 0.074
CN(C)c1cc(NC(=O)CNC(C)(C)C)c(O)c2c1C[C@H]1C[C@H]3[C@@H](N(C)C)C(O)=C(C(N)=O)C(=O)[C@@]3(O)C(O)=C1C2=O [Tigecycline] | -0.551 | 0.153 | 0.748 | 0.25
OC[C@H]1O[C@@H](Oc2cc(O)cc(/C=C/c3ccc(O)cc3)c2)[C@@H](O)[C@@H](O)[C@@H]1O [Polydatin] | -0.254 | -0.662 | 0.208 | -0.16
O=C(C=Cc1ccccc1)NC(NC(=S)Nc1ccc(Cl)cc1)C(Cl)(Cl)Cl (stereo unspecified) | 0.0646 | -0.312 | 0.0676 | -0.13
CC(=O)O[C@@]1(C(C)=O)CC[C@H]2[C@@H]3C=C(Cl)C4=CC(=O)[C@@H]5C[C@H]5[C@]4(C)[C@@H]3CC[C@@]21C [Cyproterone Acetate] | -0.967 | -1.25 | -0.29 | -1.74
COc1ccc(-c2cc(=O)c3c(OC)c(OC)c(OC)c(OC)c3o2)cc1 [Tangeretin] | -1.38 | -1.77 | -5.05 | -2.69
Oc1ccc(-c2nc(-c3ccc(F)cc3)c(-c3ccncc3)[nH]2)cc1 | -0.182 | -0.184 | 0.568 | -0.0434
Cc1cc(Cl)ccc1OCCCC(=O)NO [Droxinostat] | -0.0654 | -0.0352 | -0.0813 | -0.306
CCc1c(C(=O)NCCc2ccc(N3CCCCC3)cc2)[nH]c2ccc(Cl)cc12 | -0.212 | 0.291 | 0.614 | 0.424
C=C1/C(=C/C=C2\CCC[C@@]3(C)[C@H]2CC[C@H]3[C@H](C)/C=C/[C@@H](C)C(C)C)C[C@H](O)C[C@@H]1O [Doxercalciferol] | -0.616 | -0.887 | -0.0954 | -0.0982
CO[C@H]1/C=C/O[C@@]2(C)Oc3c(C)c(O)c4c(O)c(c(/C=N/N5CCN(C)CC5)c(O)c4c3C2=O)NC(=O)/C(C)=C/C=C/[C@H](C)[C@H](O)[C@@H](C)[C@@H](O)[C@@H](C)[C@H](OC(C)=O)[C@@H]1C [Rifampin] | -0.471 | 0.322 | 0.255 | 0.377
COc1cc([C@H]2c3cc4c(cc3[C@@H](O[C@@H]3O[C@@H]5CO[C@@H](c6cccs6)O[C@H]5[C@H](O)[C@H]3O)[C@H]3COC(=O)[C@H]23)OCO4)cc(OC)c1O [Teniposide] | -0.256 | -0.693 | -0.138 | -0.26
Cl.N=C(N)N [Guanidine HCl] | 0.081 | -0.247 | 0.115 | -0.498
CCc1cc(Nc2nccc(-c3c(-c4ccc(OC)c(C(=O)Nc5c(F)cccc5F)c4)nc4ccccn34)n2)c(OC)cc1N1CCC(N2CCN(S(C)(=O)=O)CC2)CC1 | 0.424 | 0.0955 | 0.35 | 0.169
CCN[C@H]1CN(CCCOC)S(=O)(=O)c2sc(S(N)(=O)=O)cc21 [Brinzolamide] | -0.847 | -0.481 | 0.302 | 0.321
Cl.N[C@@H]1CCCCN(c2c(F)cc3c(=O)c(C(=O)O)cn(C4CC4)c3c2Cl)C1 [Besifloxacin HCl (Besivance)] | -0.239 | -0.364 | -0.0927 | -0.315
Cc1cc2c(s1)Nc1ccccc1N=C2N1CCN(C)CC1 [Olanzapine] | -0.711 | -0.187 | -0.226 | -0.0421
CCCc1cc(=O)[nH]c(=S)[nH]1 [Propylthiouracil] | -0.555 | -0.023 | 0.0498 | 0.0569
CC[C@@]1(O)C(=O)OCc2c1cc1n(c2=O)Cc2cc3c(CN(C)C)c(O)ccc3nc2-1.Cl [Topotecan HCl] | 0.0509 | 0.263 | 0.214 | 0.112
CCCCNC(=O)NS(=O)(=O)c1ccc(C)cc1 [Tolbutamide] | -0.308 | 0.215 | 0.271 | 0.0398
OCCn1cc(-c2ccc3c(c2)CC/C3=N\O)c(-c2ccncc2)n1 | 0.0626 | -0.345 | -0.311 | -0.458
Cn1cc(-c2ccncc2)c(-c2ccc(OCc3ccc4ccccc4n3)cc2)n1 | -0.718 | -1.67 | -3.73 | -1.65
COc1ccc(COc2cc3oc(=O)c4cc(C(C)O)ccc4c3cc2OC)cc1 (stereo unspecified) [Palomid 529 (P529)] | -0.594 | 0.28 | -0.327 | -0.35
